Reference: the supplement of paper PMC12067093, “Discovery and optimisation of a covalent ligand for TRIM25 and its application to targeted protein ubiquitination” (Chemical Science, 2025)
Some of the results follow.

Amino acid sequences for entries named in this document (tags omitted). A change or cut given only in a name is not applied to a line headed by its entry.
UniProt O75648: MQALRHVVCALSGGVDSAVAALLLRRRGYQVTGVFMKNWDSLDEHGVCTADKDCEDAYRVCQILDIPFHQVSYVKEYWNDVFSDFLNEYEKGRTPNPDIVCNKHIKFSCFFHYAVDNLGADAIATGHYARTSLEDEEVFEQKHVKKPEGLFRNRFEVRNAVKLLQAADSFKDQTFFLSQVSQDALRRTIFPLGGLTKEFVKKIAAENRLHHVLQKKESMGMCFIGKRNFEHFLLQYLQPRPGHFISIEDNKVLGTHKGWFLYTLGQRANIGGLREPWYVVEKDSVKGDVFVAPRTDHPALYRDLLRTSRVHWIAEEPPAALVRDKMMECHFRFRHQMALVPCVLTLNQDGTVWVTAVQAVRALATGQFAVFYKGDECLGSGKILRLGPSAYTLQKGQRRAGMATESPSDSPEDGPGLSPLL
UniProt Q9UNY4: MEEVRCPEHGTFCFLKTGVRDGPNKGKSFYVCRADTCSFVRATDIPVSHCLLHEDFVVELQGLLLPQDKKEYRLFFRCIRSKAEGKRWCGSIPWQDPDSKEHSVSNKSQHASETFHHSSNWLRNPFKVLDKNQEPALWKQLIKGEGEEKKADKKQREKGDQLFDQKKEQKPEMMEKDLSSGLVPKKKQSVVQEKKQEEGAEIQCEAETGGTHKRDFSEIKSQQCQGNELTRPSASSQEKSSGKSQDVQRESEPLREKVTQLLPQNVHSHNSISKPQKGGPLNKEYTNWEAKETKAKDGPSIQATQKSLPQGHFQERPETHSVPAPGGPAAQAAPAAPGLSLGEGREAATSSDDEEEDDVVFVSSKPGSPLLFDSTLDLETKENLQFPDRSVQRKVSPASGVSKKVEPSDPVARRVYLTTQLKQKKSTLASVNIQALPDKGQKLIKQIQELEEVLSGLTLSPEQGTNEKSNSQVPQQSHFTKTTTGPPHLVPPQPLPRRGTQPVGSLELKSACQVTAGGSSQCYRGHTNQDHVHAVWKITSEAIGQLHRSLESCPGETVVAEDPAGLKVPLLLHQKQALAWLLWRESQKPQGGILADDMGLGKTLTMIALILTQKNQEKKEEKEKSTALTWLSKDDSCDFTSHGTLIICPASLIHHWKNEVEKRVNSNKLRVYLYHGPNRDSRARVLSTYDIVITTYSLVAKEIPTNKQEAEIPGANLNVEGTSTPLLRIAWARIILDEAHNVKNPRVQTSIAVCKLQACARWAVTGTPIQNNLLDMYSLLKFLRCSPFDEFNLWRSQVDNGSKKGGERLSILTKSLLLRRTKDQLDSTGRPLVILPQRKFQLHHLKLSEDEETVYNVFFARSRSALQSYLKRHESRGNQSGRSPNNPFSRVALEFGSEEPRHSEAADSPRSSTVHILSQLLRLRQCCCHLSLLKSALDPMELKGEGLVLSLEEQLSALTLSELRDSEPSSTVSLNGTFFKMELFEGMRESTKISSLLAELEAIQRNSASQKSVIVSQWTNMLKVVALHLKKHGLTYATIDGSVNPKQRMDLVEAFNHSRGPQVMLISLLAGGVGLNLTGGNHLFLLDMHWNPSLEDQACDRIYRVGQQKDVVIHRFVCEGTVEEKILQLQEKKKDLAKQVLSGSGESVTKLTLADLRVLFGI
UniProt Q9BSJ2, whole entry, looked up: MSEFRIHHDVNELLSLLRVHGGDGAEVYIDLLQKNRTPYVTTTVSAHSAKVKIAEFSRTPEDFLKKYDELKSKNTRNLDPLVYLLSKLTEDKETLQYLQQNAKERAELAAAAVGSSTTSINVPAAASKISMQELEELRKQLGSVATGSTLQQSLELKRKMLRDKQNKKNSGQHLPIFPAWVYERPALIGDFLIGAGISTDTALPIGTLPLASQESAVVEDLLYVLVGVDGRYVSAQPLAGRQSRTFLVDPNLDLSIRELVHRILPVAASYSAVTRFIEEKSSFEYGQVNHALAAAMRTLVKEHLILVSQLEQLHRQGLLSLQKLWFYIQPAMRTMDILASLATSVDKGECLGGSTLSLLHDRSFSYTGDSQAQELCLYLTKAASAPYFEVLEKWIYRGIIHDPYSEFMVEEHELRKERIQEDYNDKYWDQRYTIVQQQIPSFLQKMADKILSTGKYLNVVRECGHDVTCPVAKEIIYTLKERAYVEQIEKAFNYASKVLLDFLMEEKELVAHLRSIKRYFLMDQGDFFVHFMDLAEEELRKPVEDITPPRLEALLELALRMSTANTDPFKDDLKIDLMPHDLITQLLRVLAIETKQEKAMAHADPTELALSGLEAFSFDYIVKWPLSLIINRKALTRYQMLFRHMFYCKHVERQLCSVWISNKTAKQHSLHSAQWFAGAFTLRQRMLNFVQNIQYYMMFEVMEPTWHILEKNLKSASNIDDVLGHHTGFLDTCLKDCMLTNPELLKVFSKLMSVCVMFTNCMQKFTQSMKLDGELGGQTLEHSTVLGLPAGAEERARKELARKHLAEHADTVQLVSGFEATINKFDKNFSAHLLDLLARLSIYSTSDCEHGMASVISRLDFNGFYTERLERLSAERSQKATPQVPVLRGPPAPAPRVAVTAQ
UniProt P10155: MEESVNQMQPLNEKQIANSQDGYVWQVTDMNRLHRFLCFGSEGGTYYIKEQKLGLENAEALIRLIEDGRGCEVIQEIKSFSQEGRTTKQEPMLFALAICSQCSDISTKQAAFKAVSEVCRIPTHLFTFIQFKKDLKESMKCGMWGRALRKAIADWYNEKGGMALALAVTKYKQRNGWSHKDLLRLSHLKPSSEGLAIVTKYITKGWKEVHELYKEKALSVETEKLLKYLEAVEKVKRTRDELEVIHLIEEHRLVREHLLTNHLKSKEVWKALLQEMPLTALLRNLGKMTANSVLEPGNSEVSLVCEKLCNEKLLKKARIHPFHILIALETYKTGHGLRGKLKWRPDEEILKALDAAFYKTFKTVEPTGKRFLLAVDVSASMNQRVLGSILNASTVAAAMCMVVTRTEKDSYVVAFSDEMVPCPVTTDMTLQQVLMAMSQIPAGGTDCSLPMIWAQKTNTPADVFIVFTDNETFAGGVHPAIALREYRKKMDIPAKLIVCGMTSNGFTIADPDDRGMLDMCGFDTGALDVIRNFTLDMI
UniProt P49815: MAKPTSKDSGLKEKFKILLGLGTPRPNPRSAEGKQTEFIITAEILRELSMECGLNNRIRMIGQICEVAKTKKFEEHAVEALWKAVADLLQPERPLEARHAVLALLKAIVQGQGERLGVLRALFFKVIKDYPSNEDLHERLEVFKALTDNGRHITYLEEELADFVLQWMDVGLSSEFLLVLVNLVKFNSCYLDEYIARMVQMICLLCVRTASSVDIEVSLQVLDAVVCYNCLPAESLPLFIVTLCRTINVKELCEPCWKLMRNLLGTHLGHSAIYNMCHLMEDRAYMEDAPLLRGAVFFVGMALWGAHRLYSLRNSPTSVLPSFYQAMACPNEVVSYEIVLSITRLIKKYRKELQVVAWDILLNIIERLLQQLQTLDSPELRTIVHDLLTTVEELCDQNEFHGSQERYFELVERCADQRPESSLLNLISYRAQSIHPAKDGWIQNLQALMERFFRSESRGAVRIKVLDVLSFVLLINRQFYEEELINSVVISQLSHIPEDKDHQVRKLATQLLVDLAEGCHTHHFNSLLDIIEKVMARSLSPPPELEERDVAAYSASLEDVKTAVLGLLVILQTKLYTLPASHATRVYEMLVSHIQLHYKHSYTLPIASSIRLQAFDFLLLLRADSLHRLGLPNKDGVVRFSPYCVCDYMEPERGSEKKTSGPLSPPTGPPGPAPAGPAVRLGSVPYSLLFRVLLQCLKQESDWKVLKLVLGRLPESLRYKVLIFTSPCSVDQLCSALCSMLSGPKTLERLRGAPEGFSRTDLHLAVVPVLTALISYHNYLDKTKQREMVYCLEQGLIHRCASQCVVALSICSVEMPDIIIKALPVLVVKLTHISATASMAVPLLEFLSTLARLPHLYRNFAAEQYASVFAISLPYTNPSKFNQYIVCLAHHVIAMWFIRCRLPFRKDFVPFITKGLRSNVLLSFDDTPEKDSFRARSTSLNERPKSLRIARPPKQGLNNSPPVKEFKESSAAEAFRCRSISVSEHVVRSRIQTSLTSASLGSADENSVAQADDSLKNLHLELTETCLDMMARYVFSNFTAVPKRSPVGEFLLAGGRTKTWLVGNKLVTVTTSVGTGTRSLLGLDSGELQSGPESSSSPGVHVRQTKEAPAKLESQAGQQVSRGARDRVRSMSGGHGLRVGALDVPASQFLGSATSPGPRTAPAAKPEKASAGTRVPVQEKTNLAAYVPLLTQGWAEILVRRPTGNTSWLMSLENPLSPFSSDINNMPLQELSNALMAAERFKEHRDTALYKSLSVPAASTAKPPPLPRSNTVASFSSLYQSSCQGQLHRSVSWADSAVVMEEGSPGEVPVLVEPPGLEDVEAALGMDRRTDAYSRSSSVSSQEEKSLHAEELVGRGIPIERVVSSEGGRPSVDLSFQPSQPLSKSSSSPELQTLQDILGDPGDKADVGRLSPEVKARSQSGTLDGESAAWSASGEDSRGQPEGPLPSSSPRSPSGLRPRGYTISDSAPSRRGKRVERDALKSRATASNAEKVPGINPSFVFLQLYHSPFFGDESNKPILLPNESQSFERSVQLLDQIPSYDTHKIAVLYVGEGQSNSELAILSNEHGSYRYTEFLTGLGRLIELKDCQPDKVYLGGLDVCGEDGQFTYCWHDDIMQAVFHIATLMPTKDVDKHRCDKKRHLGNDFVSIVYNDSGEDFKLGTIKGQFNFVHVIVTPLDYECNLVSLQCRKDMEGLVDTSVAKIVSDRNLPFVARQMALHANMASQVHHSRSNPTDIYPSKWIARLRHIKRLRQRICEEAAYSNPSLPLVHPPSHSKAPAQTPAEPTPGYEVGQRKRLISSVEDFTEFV
UniProt Q8NBS9: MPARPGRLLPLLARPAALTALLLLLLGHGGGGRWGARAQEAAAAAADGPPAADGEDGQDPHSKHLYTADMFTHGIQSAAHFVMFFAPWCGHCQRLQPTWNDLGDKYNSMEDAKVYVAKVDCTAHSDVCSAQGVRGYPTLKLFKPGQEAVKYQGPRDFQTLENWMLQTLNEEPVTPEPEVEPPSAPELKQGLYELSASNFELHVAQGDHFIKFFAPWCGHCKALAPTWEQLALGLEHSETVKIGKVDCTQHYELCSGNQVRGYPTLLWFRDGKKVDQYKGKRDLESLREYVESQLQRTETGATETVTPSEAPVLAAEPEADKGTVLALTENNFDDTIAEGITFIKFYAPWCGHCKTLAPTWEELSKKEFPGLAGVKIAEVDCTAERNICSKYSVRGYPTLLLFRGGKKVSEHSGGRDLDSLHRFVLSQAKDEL
UniProt P30536, whole entry, looked up: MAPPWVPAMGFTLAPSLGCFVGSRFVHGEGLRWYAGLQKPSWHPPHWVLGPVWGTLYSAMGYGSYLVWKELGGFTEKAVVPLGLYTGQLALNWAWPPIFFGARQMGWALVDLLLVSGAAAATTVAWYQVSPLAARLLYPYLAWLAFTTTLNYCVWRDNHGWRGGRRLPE
UniProt Q92574: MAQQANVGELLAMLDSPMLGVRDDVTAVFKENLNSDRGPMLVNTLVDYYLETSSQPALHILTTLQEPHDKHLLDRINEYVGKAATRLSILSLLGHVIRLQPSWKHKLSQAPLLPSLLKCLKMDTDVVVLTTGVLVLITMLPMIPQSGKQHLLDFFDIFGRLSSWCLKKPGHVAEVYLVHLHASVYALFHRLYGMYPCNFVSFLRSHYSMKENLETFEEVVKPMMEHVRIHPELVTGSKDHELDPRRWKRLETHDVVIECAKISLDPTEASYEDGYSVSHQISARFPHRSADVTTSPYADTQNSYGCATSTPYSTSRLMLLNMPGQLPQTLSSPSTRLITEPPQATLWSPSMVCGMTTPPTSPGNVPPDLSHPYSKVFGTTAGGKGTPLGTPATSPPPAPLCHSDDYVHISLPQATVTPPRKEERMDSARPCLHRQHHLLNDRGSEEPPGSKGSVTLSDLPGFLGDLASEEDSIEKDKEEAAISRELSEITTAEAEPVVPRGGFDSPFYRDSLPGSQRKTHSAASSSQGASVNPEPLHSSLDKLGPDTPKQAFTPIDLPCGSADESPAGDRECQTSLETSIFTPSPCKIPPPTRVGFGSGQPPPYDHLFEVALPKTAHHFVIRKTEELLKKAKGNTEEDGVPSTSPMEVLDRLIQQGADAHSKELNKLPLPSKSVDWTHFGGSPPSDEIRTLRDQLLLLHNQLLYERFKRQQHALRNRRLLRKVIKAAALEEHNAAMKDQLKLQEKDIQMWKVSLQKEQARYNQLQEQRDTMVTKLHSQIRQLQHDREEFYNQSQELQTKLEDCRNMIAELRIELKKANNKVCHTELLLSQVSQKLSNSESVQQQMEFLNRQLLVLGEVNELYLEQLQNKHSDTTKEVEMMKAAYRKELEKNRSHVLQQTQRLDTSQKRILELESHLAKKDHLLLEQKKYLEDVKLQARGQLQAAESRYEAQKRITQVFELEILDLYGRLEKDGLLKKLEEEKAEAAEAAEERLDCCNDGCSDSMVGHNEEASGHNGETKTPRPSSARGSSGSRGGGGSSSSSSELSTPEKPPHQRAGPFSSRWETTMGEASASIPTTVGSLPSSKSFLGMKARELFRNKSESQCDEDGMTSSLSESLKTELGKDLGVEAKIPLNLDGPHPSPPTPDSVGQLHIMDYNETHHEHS

Compound: Cc1cc(ccc1-c1ccccc1)C(=O)N1CCCN(CC1)C(=O)CCl [compound 10]
Assay: probe-labelled cysteine peptide fold change vs DMSO (competition) (log2 fold change); higher = less target engagement (more negative = stronger competition)
Conditions: THP-1, incubation time: 4 h
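Further: competitive profiling in live THP-1 cells: cysteine peptides tagged with an iodoacetamide desthiobiotin (IA-DTB) probe, intensity after compound treatment relative to DMSO-treated cells.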

| Target | probe-labelled cysteine peptide fold change (10 µM) | probe-labelled cysteine peptide fold change (50 µM) |
| --- | --- | --- |
| TRMT61A_Q96FX7_209_FCSFSPCIEQVQR (UniProt Q96FX7) | -0.732 | -0.955 |
| TSNAX_Q99598_257_VENACYALK (UniProt Q99598) | -0.0234 | -0.0416 |
| TRMU_O75648_9_HVVCALSGGVDSAVAALLLR (UniProt O75648) | -0.0925 | 0.225 |
| TSTA3_Q13630_163_AYFQQYGCTFTAVIPTNVFGPHDNFNIEDGHVLPGLIHK (UniProt Q13630) | 0.308 | 0.41 |
| TTF2_Q9UNY4_648_DDSCDFTSHGTLIICPASLIHHWK (UniProt Q9UNY4) | 0.108 | 0.108 |
| TSPAN2_O60636_164_ESSEQVQPTCPK (UniProt O60636) | -0.411 | -0.422 |
| TUBB6_Q9BUF5_127+129_ECEHCDCLQGFQLTHSLGGGTGSGMGTLLISK (UniProt Q9BUF5) | 0.132 | -0.437 |
| TWSG1_Q9GZX9_208_WFHNACCECIGPECIDYGSK (UniProt Q9GZX9) | -0.0707 | 0.0707 |
| TUBGCP2_Q9BSJ2_648_HMFYCK (UniProt Q9BSJ2) | -0.103 | 0.251 |
| TROVE2_P10155_102_QEPMLFALAICSQCSDISTK (UniProt P10155) | -0.00159 | -0.0701 |
| TSC2_P49815_1026_NLHLELTETCLDMMAR (UniProt P49815) | 0.171 | -0.0622 |
| TRPM7_Q96QT4_200_ICTIGIAPWGVIENR (UniProt Q96QT4) | 0.326 | 0.211 |
| TSR1_Q2NL82_329_DPDMAMEICATDAVDDMEEGLK (UniProt Q2NL82) | -0.474 | -0.249 |
| TRMT2A_Q8IZ69_580_AVAVDLFPQTPHCEMLILFER (UniProt Q8IZ69) | 0.118 | -0.0925 |
| TTC28_Q96AY4_726_ALGNLGDIFICK (UniProt Q96AY4) | 0.263 | -0.0137 |
| TTF2_Q9UNY4_785_CSPFDEFNLWR (UniProt Q9UNY4) | 0.12 | 0.182 |
| TSFM_P43897_240_YGALVICETSEQK (UniProt P43897) | 0.0173 | 0.173 |
| TRRAP_Q9Y4A5_1376_IAALNALAACNYLPQSR (UniProt Q9Y4A5) | -0.127 | -0.0834 |
| TWF2_Q6IBS0_141_HLSSCAAPAPLTSAER (UniProt Q6IBS0) | 0.0626 | -0.0878 |
| TROVE2_P10155_71_GCEVIQEIK (UniProt P10155) | -0.263 | -0.0556 |
| TXNDC5_Q8NBS9_217_FFAPWCGHCK (UniProt Q8NBS9) | -0.617 | -0.661 |

| Target | probe-labelled cysteine peptide fold change (10 µM) | probe-labelled cysteine peptide fold change (50 µM) |
| --- | --- | --- |
| TTLL12_Q14166_361_KLSQERPGVLLNQFPCENLLTVK (UniProt Q14166) | -0.0848 | -0.518 |
| TUT4_Q5TAX3_709_YFACPQTK (UniProt Q5TAX3) | -0.272 | 0.0569 |
| TUT4_Q5TAX3_204_CALQNSPR (UniProt Q5TAX3) | -0.476 | -0.222 |
| TSC2_P49815_395_TIVHDLLTTVEELCDQNEFHGSQER (UniProt P49815) | 0.34 | -0.0715 |
| TTC27_Q6P3X3_374_NNPVHTLTEVELLAFTSCLLSQPK (UniProt Q6P3X3) | 0.167 | 0.406 |
| TSTA3_Q13630_112_KVVSCLSTCIFPDK (UniProt Q13630) | -0.1 | -0.449 |
| TRPM4_Q8TD43_759_QSGRPGCCGGR (UniProt Q8TD43) | -0.788 | -2.09 |
| TUBB6_Q9BUF5_129_ECEHCDCLQGFQLTHSLGGGTGSGMGTLLISK (UniProt Q9BUF5) | -0.0498 | -0.084 |
| TRPV2_Q9Y5S1_332_KFTEWCYGPVR (UniProt Q9Y5S1) | -0.039 | -0.268 |
| TUT4_Q5TAX3_966_CFDELSPPCSEQHNR (UniProt Q5TAX3) | -0.0735 | -0.525 |
| TTLL12_Q14166_361_PGVLLNQFPCENLLTVK (UniProt Q14166) | -0.00778 | -0.111 |
| TTC37_Q6PGP7_305_ESPVCTSGWYHLAEAQVK (UniProt Q6PGP7) | 0.0355 | -0.0923 |
| TTC39C_Q8N584_517_AVKDELCR (UniProt Q8N584) | -0.00819 | -0.291 |
| TTI2_Q6NXR4_461_SALLQEATDCLILLDR (UniProt Q6NXR4) | 0.0942 | -0.0555 |
| TSPO_P30536_19_APPWVPAMGFTLAPSLGCFVGSR (UniProt P30536) | -0.0462 | -0.132 |
| TRMT61B_Q9BVS5_396_ISEVIVRDWLVCLAK (UniProt Q9BVS5) | 0.164 | -0.0885 |
| TSC2_P49815_791_EMVYCLEQGLIHR (UniProt P49815) | 0.0971 | -0.0121 |
| TTC37_Q6PGP7_1162_CLLTSAIYALQGR (UniProt Q6PGP7) | -0.0497 | -0.11 |
| TROVE2_P10155_400_VLGSILNASTVAAAMCMVVTR (UniProt P10155) | -0.219 | 0.696 |
| TTC5_Q8N0Z6_125_KGDVAAAHTCFSGALTHCR (UniProt Q8N0Z6) | 0.227 | -0.114 |
| TUFM_P49411_290_KGDECELLGHSK (UniProt P49411) | -0.121 | -0.0683 |

| Target | probe-labelled cysteine peptide fold change (10 µM) | probe-labelled cysteine peptide fold change (50 µM) |
| --- | --- | --- |
| TRRAP_Q9Y4A5_949_AIETALDCLK (UniProt Q9Y4A5) | 0.183 | 0.0005 |
| TXNIP_Q9H3M7_36_VIVEVCEVTR (UniProt Q9H3M7) | 0.0116 | -0.861 |
| TTC13_Q8NBP0_505_DVLHQNFESYKPEVQELICVADR (UniProt Q8NBP0) | -0.249 | 0.0531 |
| TSC1_Q92574_822_VCHTELLLSQVSQK (UniProt Q92574) | -0.126 | -0.156 |
| TUT4_Q5TAX3_825_KQDDLAPSETCLK (UniProt Q5TAX3) | -0.195 | -0.0583 |
| TSFM_P43897_71_ALETCGGDLK (UniProt P43897) | 0.0543 | -0.0953 |
| TUT4_Q5TAX3_994_LCLFGSSK (UniProt Q5TAX3) | -0.0277 | -0.158 |
| TROVE2_P10155_99_QEPMLFALAICSQCSDISTK (UniProt P10155) | 0.128 | 0.0812 |
| TTC28_Q96AY4_816_CYEEQLDLGQK (UniProt Q96AY4) | 0.248 | 0.196 |
| TUFM_P49411_127_HYAHTDCPGHADYVK (UniProt P49411) | 0.0555 | 0.0102 |
| TSR2_Q969E8_114_EMASCITQR (UniProt Q969E8) | -0.531 | -0.527 |
| TRRAP_Q9Y4A5_3758_CFAQPNFK (UniProt Q9Y4A5) | 0.105 | 0.125 |
| TSPYL5_Q86VY4_85_LPLDCGLALR (UniProt Q86VY4) | -0.317 | -0.414 |
| TUBB6_Q9BUF5_124+127_ECEHCDCLQGFQLTHSLGGGTGSGMGTLLISK (UniProt Q9BUF5) | 0.114 | -0.886 |
| TRNAU1AP_Q9NX07_48_LTGIPAGYCFVEFADLATAEK (UniProt Q9NX07) | 0.219 | 0.558 |
| TTI2_Q6NXR4_36_ILHCLARPEAR (UniProt Q6NXR4) | 0.126 | -0.203 |
| TTC27_Q6P3X3_514_KETPSLYCLLGDVLGDHSCYDK (UniProt Q6P3X3) | -0.155 | -0.359 |
| TWNK_Q96RR1_330_CFLVRPGDQQPRPLEALNGGFNLSR (UniProt Q96RR1) | -0.0451 | -0.244 |
| TRMU_O75648_109_FSCFFHYAVDNLGADAIATGHYAR (UniProt O75648) | -0.0238 | -0.352 |
| TUFM_P49411_222_ELLTEFGYKGEETPVIVGSALCALEGRDPELGLK (UniProt P49411) | -0.102 | 0.0662 |
| TTF2_Q9UNY4_1118_FVCEGTVEEK (UniProt Q9UNY4) | -0.115 | -0.109 |

| Target | probe-labelled cysteine peptide fold change (10 µM) | probe-labelled cysteine peptide fold change (50 µM) |
| --- | --- | --- |
| TRPM2_O94759_1341_GSLSCFGPNHTLYPMVTR (UniProt O94759) | -0.0254 | 0.0306 |
| TTYH3_Q9C0H2_486_CENTPLIGR (UniProt Q9C0H2) | -0.241 | -0.228 |
| TWISTNB_Q3B726_47_YSCLVAGPHQR (UniProt Q3B726) | 0.137 | 0.174 |
| TRPM7_Q96QT4_1411_FFVSTPSQPSCK (UniProt Q96QT4) | -0.337 | -0.544 |
| TXNDC5_Q8NBS9_121+128_VDCTAHSDVCSAQGVR (UniProt Q8NBS9) | -0.369 | -0.366 |
| TTK_P33981_322_DLVVPGSKPSGNDSCELR (UniProt P33981) | -0.133 | -0.627 |
| TTI1_O43156_185+187_CLQVLLLQCDCQDHPR (UniProt O43156) | 0.296 | -0.0229 |
| TRRAP_Q9Y4A5_1315_HQPANAQIGLMEGNTFCTTLQPR (UniProt Q9Y4A5) | -0.0509 | 0.406 |
| TSSC4_Q9Y5U2_99_DIFDCLEGAAR (UniProt Q9Y5U2) | -0.245 | -0.311 |
| TRMT44_Q8IYL2_482_EVGFTCGFHVDEDCLR (UniProt Q8IYL2) | 0.161 | 0.256 |
| TTC37_Q6PGP7_329_EAVLSCSQALK (UniProt Q6PGP7) | -0.137 | -0.117 |
| TSC1_Q92574_259_RLETHDVVIECAK (UniProt Q92574) | 0.224 | 0.167 |
| TTF2_Q9UNY4_754_VQTSIAVCK (UniProt Q9UNY4) | -0.0345 | -0.157 |
| TUBA1B_P68363_347_SIQFVDWCPTGFK (UniProt P68363) | 0.15 | 0.00584 |
| TXN2_Q99757_90+93_VVNSETPVVVDFHAQWCGPCK (UniProt Q99757) | -1.92 | -2.07 |
| TXNDC5_Q8NBS9_254_VDCTQHYELCSGNQVR (UniProt Q8NBS9) | -0.0339 | 0.0451 |
| TUBGCP2_Q9BSJ2_469_ECGHDVTCPVAK (UniProt Q9BSJ2) | -0.0991 | -0.239 |
| TTC28_Q96AY4_794_ALGYHTQELEVYQELSDLPGECR (UniProt Q96AY4) | -0.0169 | -0.0577 |
| TTC17_Q96AE7_725_CPECENSLK (UniProt Q96AE7) | 0.113 | 0.453 |
| TUBGCP6_Q96RT7_302_VGCPPGHREEPYLTEAGR (UniProt Q96RT7) | -0.208 | -0.275 |
| TTC30B_Q8N4P2_619_DSVIQECVQFLEHCELHGR (UniProt Q8N4P2) | 0.0301 | 0.294 |
